Laboratory results as given in article PMC10920845.
These are yes or no findings as the source states them, for the method shown. In cells and extracts the contact can be indirect. Some results given as binding are weak or reduced against the parent protein; the word gives no strength.

By UniProt entry, the sequences of proteins in these tests, tags left out.
UniProt O35129: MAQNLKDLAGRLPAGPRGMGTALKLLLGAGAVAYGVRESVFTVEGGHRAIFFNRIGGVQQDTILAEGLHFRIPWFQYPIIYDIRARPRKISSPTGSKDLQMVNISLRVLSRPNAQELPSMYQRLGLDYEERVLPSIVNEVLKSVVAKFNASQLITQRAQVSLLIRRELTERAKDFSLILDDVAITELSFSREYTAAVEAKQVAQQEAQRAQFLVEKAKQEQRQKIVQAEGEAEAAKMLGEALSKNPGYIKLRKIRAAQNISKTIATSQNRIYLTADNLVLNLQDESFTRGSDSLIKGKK
UniProt P52480: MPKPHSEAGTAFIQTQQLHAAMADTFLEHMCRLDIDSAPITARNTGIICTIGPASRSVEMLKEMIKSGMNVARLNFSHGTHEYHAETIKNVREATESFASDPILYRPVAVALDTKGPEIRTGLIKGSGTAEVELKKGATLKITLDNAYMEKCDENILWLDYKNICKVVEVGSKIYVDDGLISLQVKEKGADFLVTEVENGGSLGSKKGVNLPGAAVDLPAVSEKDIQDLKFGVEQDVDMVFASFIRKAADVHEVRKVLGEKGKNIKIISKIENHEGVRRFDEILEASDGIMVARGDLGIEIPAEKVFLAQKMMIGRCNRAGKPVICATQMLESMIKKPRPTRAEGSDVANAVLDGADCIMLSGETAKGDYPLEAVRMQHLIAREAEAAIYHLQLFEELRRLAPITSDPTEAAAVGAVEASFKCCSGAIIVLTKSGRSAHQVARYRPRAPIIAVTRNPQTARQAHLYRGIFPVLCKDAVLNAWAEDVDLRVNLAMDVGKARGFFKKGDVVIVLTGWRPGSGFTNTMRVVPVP

Experiments:
[1] = target: Prohibitin 2 (PHB2) (mouse (endogenous in HL-1 and N2a)) (UniProt O35129); assay: co-IP; N2a cell lysate; cells treated with MG132 for six hours; lysis in 20 mM Tris-HCl pH 7.5, 150 mM NaCl, 10% glycerol, 1% Triton X-100; primary antibody overnight, IgG magnetic beads 2 h at 4°C; with and without LPS treatment of the cells; bait not stated
[2] = target: Prohibitin 2 (PHB2) (mouse (endogenous in HL-1 and N2a)) (UniProt O35129); assay: co-IP; HL-1 cell lysate; cells treated with MG132 for six hours; lysis in 20 mM Tris-HCl pH 7.5, 150 mM NaCl, 10% glycerol, 1% Triton X-100; primary antibody overnight, IgG magnetic beads 2 h at 4°C; with and without LPS treatment of the cells; bait not stated

binding [1]: binds
binding [2]: binds
Substance: Pyruvate Kinase M2 (PKM2) (from UniProt P52480 1-531) (enzyme)
